Data as given in PubChem BioAssay AID1159578 (Peter MacCallum Cancer Centre, 2015)

Assay: 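Genome-wide hunt for genes controlling movement of lymphatic endothelial cells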 (primary screen)
System: human lymphatic endothelial cells
Reagent: siRNA pool against human genes, 40 nM
Timing: 48 h after transfection
Measured: 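High-content imaging of dye-stained cells in a scratch assay measures filled wound area and nuclei per well; duplicate means given as ratio to mock and robust z-score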
Scale: migration robust z-score: higher = faster migration into the scratch; migration relative to mock: higher = more scratch area covered than mock; nuclei per well: higher = more cells in the well
Rule for the call: 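Migration changed when robust z exceeds 2 or falls below -2 and mean nuclei number is at least 3300; otherwise not called changed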
Meaning of the calls: active = migration changed; inactive = no migration change, or too few cells
The whole screen tested about 18,000 reagents; below is a part drawn at random. About 1,030 of them (5.7%) count as active. 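Inactive calls also include pools with fewer than 3300 nuclei, whose migration was not assessed.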 The raw values are shown without normalisation. Reagent sequences are not shown.

no.	Target gene	migration robust z-score	migration class with cell-count check	migration relative to mock	nuclei per well, duplicate mean	activity call
1	SPDYE1	0.66	migration z between -2 and 2; enough cells	1.06	5802	inactive
2	LAMA1	2.29	migration z above 2; enough cells	1.48	6106	active
3	C8orf34	-2.25	migration z below -2; enough cells	0.29	3824	active
4	SLC45A1	1.21	migration z between -2 and 2; enough cells	1.2	5708	inactive
5	FLAD1	0.44	migration z between -2 and 2; enough cells	0.89	4591	inactive
6	TPP2	-0.05	migration z between -2 and 2; enough cells	0.79	6479	inactive
7	DIP2C	0.15	migration z between -2 and 2; enough cells	0.92	5122	inactive
8	NOBOX	0.9	migration z between -2 and 2; enough cells	1.12	5965	inactive
9	RNF182	0.55	migration z between -2 and 2; enough cells	0.91	6582	inactive
10	OMG	0.16	migration z between -2 and 2; enough cells	0.84	5246	inactive
11	TRO	-0.21	migration z between -2 and 2; enough cells	0.83	5000	inactive
12	GAS6	1.06	migration z between -2 and 2; enough cells	1.16	6016	inactive
13	TBX10	0.74	migration z between -2 and 2; enough cells	1.08	6179	inactive
14	UROC1	1.2	migration z between -2 and 2; enough cells	1.04	5488	inactive
15	PDXP	1.04	migration z between -2 and 2; enough cells	1	5858	inactive
16	EFR3A	-1.58	migration z between -2 and 2; enough cells	0.48	5793	inactive
17	NKAIN2	0.84	migration z between -2 and 2; enough cells	1.1	6316	inactive
18	RIF1	0.96	migration z between -2 and 2; enough cells	1.14	5676	inactive
19	TAS2R41	-0.98	migration z between -2 and 2; enough cells	0.63	3884	inactive
20	DND1	-1.96	migration z between -2 and 2; enough cells	0.38	5466	inactive
21	GJB5	1.33	migration z between -2 and 2; enough cells	1.06	6157	inactive
22	DNMT1	-0.68	migration z between -2 and 2; enough cells	0.68	4630	inactive
23	RAB3B	-0.57	migration z between -2 and 2; enough cells	0.7	5057	inactive
24	DIPK2A	-0.43	migration z between -2 and 2; enough cells	0.78	6757	inactive
25	GPRASP1	0.18	migration z between -2 and 2; enough cells	0.84	5376	inactive
26	ZNF208	0.11	migration z between -2 and 2; enough cells	0.91	4950	inactive
27	CLMN	0.62	migration z between -2 and 2; enough cells	0.92	6064	inactive
28	RUNX1T1	-1.06	migration z between -2 and 2; enough cells	0.6	4759	inactive
29	NOAZFP	-0.28	migration z between -2 and 2; enough cells	0.75	4645	inactive
30	THAP4	-0.18	migration z between -2 and 2; enough cells	0.84	5322	inactive
31	CREB3L1	0.2	migration z between -2 and 2; enough cells	0.94	5680	inactive
32	AKR1B10	-1.2	migration z between -2 and 2; enough cells	0.57	5854	inactive
33	PARVA	-0.21	migration z between -2 and 2; enough cells	0.83	4710	inactive
34	FPR1	0.39	migration z between -2 and 2; enough cells	0.88	7536	inactive
35	SDHA	-0.42	migration z between -2 and 2; enough cells	0.72	6162	inactive
36	FRG2B	-0.33	migration z between -2 and 2; enough cells	0.8	5246	inactive
37	IRX6	-0.51	migration z between -2 and 2; enough cells	0.75	5843	inactive
38	SLC31A2	-3.73	migration z below -2; enough cells	0.08	4178	active
39	ATP4B	0.25	migration z between -2 and 2; enough cells	0.95	7081	inactive

As entered above.
For “migration robust z-score”, GJB5 is entered as 1.33
Value for TRO in “migration class with cell-count check”: migration z between -2 and 2; enough cells
TPP2, migration robust z-score: -0.05
